Assay results from patent US4757080A, “1,4-dihydropyridine derivatives” (Heumann Pharma GmbH & Co., priority 1986, dated 1988).

Target: T1, isolated guineapig's ileum (Cavia porcellus)
T1 construct: isolated guineapig's ileum; from tissue; host or cells: isolated guinea pig ileum
Experiment: calcium antagonistic activity on isolated guineapig's ileum stimulated with barium chloride
Details: read-out: pA2-value (BaCl2) (converted)

SMILES: COC(=O)C1=C(C)NC(C)=C(C(=O)OC)C1c1ccccc1[N+](=O)[O-] [Nifedipine, 1,4-dihydro-2,6-dimethyl-4-(2-nitrophenyl)-3,5-pyridine carboxylic acid dimethyl ester]
- Kb: 9.55 nM
